Drawing on PMC9848475, this text covers binding for two molecules.

Experiment [1] addresses Irgb10 fused to a fragment of TEM-1 β-lactamase (mouse). Put plainly: split reporter; protein-fragment complementation assay of Irgb10 fused to different Bla fragments in HEK293T, in absence and presence of co-transfected ROP39 (wt or D/N) not fused to any Bla fragment; nitrocefin hydrolysis, absorbance at 495 nm.
Experiment [2] shares this target. Put plainly: split reporter; protein-fragment complementation assay with split TEM-1 β-lactamase (BlaN, BlaC fusions) co-transfected in HEK293T; nitrocefin hydrolysis in lysates, absorbance at 495 nm.

No constants are given. Whether binding was seen depends on the method and setting. Binding seen in cells or lysates may run through a third protein. A result given as binding can be weak or reduced; the word gives no strength. For some assays here: Tags and fused reporters may be left off the sequences shown.

B1: kinase dead ROP39 (ROP39D/N) used as inhibitor of Irgb10 dimerisation (protein, UniProt S8F1L0 1-588)
chain: MSKPFFPQVWVSCTGGVLNLRRHWLRVGNMSRAFAPTVLFVLLNVGGSLWVPRTLPVSAFQDAVAPHHPCIGRPCDQVASVVAVPPANNLGFKREPSVGSPGHFSFLQAVGGVGGPPYAGDGSPLLASRLDWQFLQQWHTDEDENARDGFVAALSRVTRLSQILEDCNMEMVLLLDRVFSRSPRITLSAVEPRTHRRRTLKLKIRSVAGTGGYNIVVKAFVIKSWFFRLGHWLGSLGRQRNTARAPGGETGQQTGTSGRRSSRSRGQSGREEGRREPQMVSLRIRVGGAPDCQVANEMQAAEVVQKCVSEADRIMHVFPEDVTPDVLVSRFRFAVPLYSGRIRHRSALLGQSRGYALLNYMDVLPPMLCDLFAAQSVVQPSMTRAIAKQLLELVAHLQALGVVHSNLKPENVLVDEAGNLFLADFDKAHKVGSRVRCSSLPHSLFADPQTVICRETTPDQEVTLAFSQDAWALGMLMYDTFCRNWPFMGMDYNNDSDTSNTIVLAGLLDRAAAVDTRAPIDWIGCDNPRVESEIKDLISRLLDIDPENRLDVLSFYMHSDFFNEGRNEANRSPPQRGAPILPLRESIV
On to B1, for which, in experiment [1], the binding entry was “binds”.

B2: kinase dead ROP39 (ROP39D/N) fused to a fragment of TEM-1 β-lactamase (protein, UniProt S8F1L0 1-588)
chain: MSKPFFPQVWVSCTGGVLNLRRHWLRVGNMSRAFAPTVLFVLLNVGGSLWVPRTLPVSAFQDAVAPHHPCIGRPCDQVASVVAVPPANNLGFKREPSVGSPGHFSFLQAVGGVGGPPYAGDGSPLLASRLDWQFLQQWHTDEDENARDGFVAALSRVTRLSQILEDCNMEMVLLLDRVFSRSPRITLSAVEPRTHRRRTLKLKIRSVAGTGGYNIVVKAFVIKSWFFRLGHWLGSLGRQRNTARAPGGETGQQTGTSGRRSSRSRGQSGREEGRREPQMVSLRIRVGGAPDCQVANEMQAAEVVQKCVSEADRIMHVFPEDVTPDVLVSRFRFAVPLYSGRIRHRSALLGQSRGYALLNYMDVLPPMLCDLFAAQSVVQPSMTRAIAKQLLELVAHLQALGVVHSNLKPENVLVDEAGNLFLADFDKAHKVGSRVRCSSLPHSLFADPQTVICRETTPDQEVTLAFSQDAWALGMLMYDTFCRNWPFMGMDYNNDSDTSNTIVLAGLLDRAAAVDTRAPIDWIGCDNPRVESEIKDLISRLLDIDPENRLDVLSFYMHSDFFNEGRNEANRSPPQRGAPILPLRESIV
Turning to B2, the binding result in experiment [2] is listed as “binds”.
